Experimental data as given in PMC10182956 (Archives of Toxicology, 2023).

System: HepaRG cells
Assay: Cell viability assessment (WST-1 assay)
Assay type: cell-based
Conditions: Homo sapiens, 24 h exposure, reference chemicals, 95% CI in brackets, read-out: EC50 µM (95% CI) from cell viability (WST-1)
Text: Undifferentiated HepaRG cells were purchased from Biopredic international (Saint Grégoire, France). HepaRG cells have unlimited growth capacity and phenotypic stability, stable enzymatic activities over 4 weeks of cultivation, and similar metabolic function to primary human hepatocytes, and also avoid limitations of primary cells such as donor variability and phenotypic instability (Aninat et al. [2006]; Guillouzo et al. [2007]; Lambert et al. [2009]; Lübberstedt et al. [2011]; Andersson et al. [2012]). The line contains two cell types, hepatocyte-like and cholangiocyte-like cells (Parent et al. [2004]), which allows for elucidation of cell-specific toxicity (Jossé et al. [2008]). […]
Cell viability was analyzed using the WST-1 assay which is based on the measurement of mitochondrial dehydrogenase activity (cat. nr: ab155902, Abcam, Cambridge, UK). […] After 1 h, absorbance was measured (450 nm, reference wavelength 620 nm) using a plate reader (Infinite M200 Pro, Tecan group, Männerdorf, Switzerland). Absorbance was then subtracted from the reference wavelength, corrected for background by subtracting values measured without cells, and then normalized to the solvent control, which was set to 100%. […]

Compound: CCCCc1oc2ccccc2c1C(=O)c1cc(I)c(OCCN(CC)CC)c(I)c1 [amiodarone]
- EC50: 45.1 µM
